The results in this text go back to paper PMC7862700.

One assay has as its target T1, GABPA (UniProt Q06546).
T1 sequence: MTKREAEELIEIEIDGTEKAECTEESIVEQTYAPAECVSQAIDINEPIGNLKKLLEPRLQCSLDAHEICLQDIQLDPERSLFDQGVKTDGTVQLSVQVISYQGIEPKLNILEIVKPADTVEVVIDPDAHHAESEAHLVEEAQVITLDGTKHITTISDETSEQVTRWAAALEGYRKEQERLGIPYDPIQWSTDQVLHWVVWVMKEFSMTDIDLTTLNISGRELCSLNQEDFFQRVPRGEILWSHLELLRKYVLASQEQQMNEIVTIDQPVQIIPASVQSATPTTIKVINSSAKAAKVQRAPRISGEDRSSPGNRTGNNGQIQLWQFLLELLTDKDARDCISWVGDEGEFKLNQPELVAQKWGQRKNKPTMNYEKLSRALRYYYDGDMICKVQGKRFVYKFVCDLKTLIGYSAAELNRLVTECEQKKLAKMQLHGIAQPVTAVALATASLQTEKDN
Put plainly: DAPPL (digital affinity profiling via proximity ligation, sequencing). Conditions: 10 mM Tris-HCl pH 7.5, 50 mM NaCl, 1 mM DTT, 4% glycerol, room temperature, 30 min; GST-TFs on glutathione beads, 16-mer random dsDNA library, 0.1% …; high values mean tight binding; double strand, one strand shown; scale: fold enrichment (6-mer frequency, TF over GST control).

The next assay addresses T2, ETS1 (UniProt P14921).
T2 sequence: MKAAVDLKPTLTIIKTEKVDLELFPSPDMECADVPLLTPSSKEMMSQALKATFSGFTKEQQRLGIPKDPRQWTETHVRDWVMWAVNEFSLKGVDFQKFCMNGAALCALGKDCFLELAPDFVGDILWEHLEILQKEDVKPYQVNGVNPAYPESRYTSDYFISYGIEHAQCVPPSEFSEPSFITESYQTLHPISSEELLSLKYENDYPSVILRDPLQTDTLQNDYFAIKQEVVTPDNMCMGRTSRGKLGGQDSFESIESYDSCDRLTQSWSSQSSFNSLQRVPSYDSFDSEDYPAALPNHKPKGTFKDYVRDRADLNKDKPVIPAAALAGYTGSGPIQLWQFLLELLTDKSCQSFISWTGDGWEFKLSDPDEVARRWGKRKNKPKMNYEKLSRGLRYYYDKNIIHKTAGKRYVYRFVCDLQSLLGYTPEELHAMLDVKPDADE
Described as above. As to conditions: 10 mM Tris-HCl pH 7.5, 50 mM NaCl, 1 mM DTT, 4% glycerol, room temperature, 30 min; GST-TFs on glutathione beads, 16-mer random dsDNA library, 0.1% …; high values mean tight binding; double strand, one strand shown; scale: fold enrichment (6-mer frequency, TF over GST control).

The list shows a part of the results, in another mix than the full data. For part of these data: At the low end of the ranking, values are background and their order means little. The list shows a part of the results. For part of these data: Construct or isoform of the protein are uncertain.

Take CAATTC: the binding signal in the assay with GABPA stood at 1.19; with ETS1 it was 1.32.
On the same counts, the results for GTACGA are 1.14 and 1.06.
On to TGCATC, for which the binding signal was 1.38 with GABPA and 1.27 with ETS1.
For the sequence TAACGT, the values for the binding signal in the assay with GABPA and with ETS1 were 0.949 and 0.894, respectively.
On the same counts, the results for GTTCAC are 1.32 and 1.28.
For TCCGGT, the values for the binding signal in the assay with GABPA and in the assay with ETS1 were 3.5 and 3.28, respectively.
TCCGTA: the binding signal in the assay with GABPA turned out to be 1.59; in the assay with ETS1 it was 1.48.
With GTACCA, the results for the binding signal in the assay with GABPA and in the assay with ETS1 were 0.938 and 1.11, respectively.
Regarding TAGGAT, the binding signal with GABPA is 0.965; with ETS1, 0.982.
Consider TCATAA, for which the binding signal with GABPA was 1.03; in the assay with ETS1 it was 1.04.
As to GATTCG, the binding signal was found to be 0.959 with GABPA and 1.07 with ETS1.
For CCAAAC, the binding signal with GABPA was determined as 1.15; with ETS1, 1.18.
On the same counts, the results for AAGAAG are 1.01 and 1.08.
In the case of CTACGT, the binding signal with GABPA was 1.18; with ETS1, 1.16.
CGCTCG: the binding signal was determined as 1.11 with GABPA and 1.1 in the assay with ETS1.
Regarding GTTGTA, the binding signal came to 0.941 with GABPA and 1.1 with ETS1.
In the case of ATCCTT, the binding signal in the assay with GABPA stood at 1.64; with ETS1, 1.69.
GTTGAT: the values for the binding signal with GABPA and with ETS1 were 1.12 and 1.17, respectively.
As for CAAGTT, the binding signal in the assay with GABPA is 0.989; with ETS1, 1.09.
On to ACAACT, for which the binding signal is 1.4 in the assay with GABPA and 1.36 in the assay with ETS1.
Regarding GTGTCT, the results for the binding signal with GABPA and in the assay with ETS1 were 0.949 and 1.1, respectively.
In the case of ACGGTA, the results for the binding signal in the assay with GABPA and with ETS1 were 0.929 and 0.942, respectively.
As for TAGCAT, the results for the binding signal with GABPA and with ETS1 were 1.05 and 1.06, respectively.
Regarding GTAGAT, the results for the binding signal with GABPA and with ETS1 were 0.978 and 0.964, respectively.
With CACGGC, the binding signal in the assay with GABPA came to 0.923; with ETS1, 0.938.
For the sequence CAACCT, the binding signal with GABPA was 1.23; in the assay with ETS1 it was 1.21.
Regarding TAACGC, the binding signal is 1.21 with GABPA and 1.15 with ETS1.
ATAACC: the binding signal in the assay with GABPA amounted to 1.22; in the assay with ETS1, 1.14.
With TTATTA, the binding signal with GABPA turned out to be 1.04; with ETS1, 1.26.
As for CCTCTG, the binding signal with GABPA was 1.63; with ETS1, 1.47.
Taken in the same sequence, the figures for CCTAGG were 1.04 and 0.959.
For AGCGAC, the binding signal in the assay with GABPA turned out to be 1.09; with ETS1 it was 1.14.
Taken in the same sequence, the figures for GTCCAT were 0.99 and 1.17.
Regarding AGCATC, the binding signal in the assay with GABPA worked out at 1.03; in the assay with ETS1, 0.964.
For TTTGGA, the binding signal with GABPA was found to be 1.24; with ETS1 it was 1.23.
On the same counts, the results for TCATGT are 1.11 and 1.14.
Taken in the same sequence, the figures for GGCTTA were 1.17 and 1.15.
For the sequence CCTTGA, the binding signal came out at 1.24 with GABPA and 1.22 in the assay with ETS1.
For the sequence TAAGTC, the binding signal was 0.921 with GABPA and 0.892 in the assay with ETS1.
In the case of GGATAC, the values for the binding signal with GABPA and with ETS1 were 0.974 and 0.885, respectively.
On the same counts, the results for CAGATC are 0.907 and 0.939.
Take TCGATG: the binding signal with GABPA was 1.12; with ETS1 it was 1.02.
As to TCGAGC, the binding signal in the assay with GABPA turned out to be 0.919; with ETS1 it was 1.12.
Regarding ATTGAG, the binding signal worked out at 0.971 with GABPA and 1.05 with ETS1.
Regarding ATCAAA, the results for the binding signal with GABPA and with ETS1 were 1.13 and 1.09, respectively.
Consider GGCCTT, for which the values for the binding signal with GABPA and with ETS1 were 1.29 and 1.21, respectively.
For CATTAA, the results for the binding signal with GABPA and in the assay with ETS1 were 1.12 and 1.06, respectively.
As to CCGACG, the binding signal was 1.27 with GABPA and 1.26 with ETS1.
On the same counts, the results for AAATCA are 1.19 and 1.22.
With AAGAAC, the binding signal was 1.15 with GABPA and 1.16 with ETS1.
For ATCAAG, the binding signal with GABPA is 0.914; with ETS1 it was 0.998.
Taken in the same sequence, the figures for ATATTC were 1.24 and 1.26.
As to CCTAAC, the figures for the binding signal in the assay with GABPA and in the assay with ETS1 were 1.37 and 1.38, respectively.
For the sequence TGTTGG, the values for the binding signal with GABPA and with ETS1 were 0.846 and 0.858, respectively.
For the sequence CCGAAA, the binding signal with GABPA came to 1.33; with ETS1, 1.28.
As for AAAGCA, the binding signal in the assay with GABPA turned out to be 1.15; with ETS1, 1.06.
Regarding TTCCGA, the values for the binding signal with GABPA and in the assay with ETS1 were 1.43 and 1.61, respectively.
